Test results reported in paper PMC12288870.
Results are given in words; binding and its absence hold for the method and conditions named. Binding seen in cells or lysates may run through a third protein. A yes stands for co-enrichment or nearness to the bait. Other partners may have been found.

Protein sequences, listed by entry. Tags and fused reporters are not part of them.
UniProt O60573: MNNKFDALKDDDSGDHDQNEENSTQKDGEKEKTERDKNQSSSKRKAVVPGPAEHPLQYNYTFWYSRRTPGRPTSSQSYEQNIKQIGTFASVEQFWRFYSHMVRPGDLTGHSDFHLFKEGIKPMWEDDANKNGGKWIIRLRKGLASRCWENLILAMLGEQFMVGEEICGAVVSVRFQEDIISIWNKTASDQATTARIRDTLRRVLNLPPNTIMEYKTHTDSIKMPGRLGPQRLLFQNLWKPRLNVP

B1: ZNF598 (protein, UniProt Q86UK7 1-904)
chain: MAAAGGAEGRRAALEAAAAAAPERGGGSCVLCCGDLEATALGRCDHPVCYRCSTKMRVLCEQRYCAVCREELRQVVFGKKLPAFATIPIHQLQHEKKYDIYFADGKVYALYRQLLQHECPRCPELPPFSLFGDLEQHMRRQHELFCCRLCLQHLQIFTYERKWYSRKDLARHRMQGDPDDTSHRGHPLCKFCDERYLDNDELLKHLRRDHYFCHFCDSDGAQDYYSDYAYLREHFREKHFLCEEGRCSTEQFTHAFRTEIDLKAHRTACHSRSRAEARQNRHIDLQFSYAPRHSRRNEGVVGGEDYEEVDRYSRQGRVARAGTRGAQQSRRGSWRYKREEEDREVAAAVRASVAAQQQEEARRSEDQEEGGRPKKEEAAARGPEDPRGPRRSPRTQGEGPGPKETSTNGPVSQEAFSVTGPAAPGCVGVPGALPPPSPKLKDEDFPSLSASTSSSCSTAATPGPVGLALPYAIPARGRSAFQEEDFPALVSSVPKPGTAPTSLVSAWNSSSSSKKVAQPPLSAQATGSGQPTRKAGKGSRGGRKGGPPFTQEEEEDGGPALQELLSTRPTGSVSSTLGLASIQPSKVGKKKKVGSEKPGTTLPQPPPATCPPGALQAPEAPASRAEGPVAVVVNGHTEGPAPARSAPKEPPGLPRPLGSFPCPTPQEDFPALGGPCPPRMPPPPGFSAVVLLKGTPPPPPPGLVPPISKPPPGFSGLLPSPHPACVPSPATTTTTKAPRLLPAPRAYLVPENFRERNLQLIQSIRDFLQSDEARFSEFKSHSGEFRQGLISAAQYYKSCRDLLGENFQKVFNELLVLLPDTAKQQELLSAHTDFCNREKPLSTKSKKNKKSAWQATTQQAGLDCRVCPTCQQVLAHGDASSHQALHAARDDDFPSLQAIARIIT

Molecular target: T1, GIGYF2 (human (endogenous in Calu-3, HEK293T, HEK293T-ACE2)) (UniProt Q6Y7W6)
T1 sequence: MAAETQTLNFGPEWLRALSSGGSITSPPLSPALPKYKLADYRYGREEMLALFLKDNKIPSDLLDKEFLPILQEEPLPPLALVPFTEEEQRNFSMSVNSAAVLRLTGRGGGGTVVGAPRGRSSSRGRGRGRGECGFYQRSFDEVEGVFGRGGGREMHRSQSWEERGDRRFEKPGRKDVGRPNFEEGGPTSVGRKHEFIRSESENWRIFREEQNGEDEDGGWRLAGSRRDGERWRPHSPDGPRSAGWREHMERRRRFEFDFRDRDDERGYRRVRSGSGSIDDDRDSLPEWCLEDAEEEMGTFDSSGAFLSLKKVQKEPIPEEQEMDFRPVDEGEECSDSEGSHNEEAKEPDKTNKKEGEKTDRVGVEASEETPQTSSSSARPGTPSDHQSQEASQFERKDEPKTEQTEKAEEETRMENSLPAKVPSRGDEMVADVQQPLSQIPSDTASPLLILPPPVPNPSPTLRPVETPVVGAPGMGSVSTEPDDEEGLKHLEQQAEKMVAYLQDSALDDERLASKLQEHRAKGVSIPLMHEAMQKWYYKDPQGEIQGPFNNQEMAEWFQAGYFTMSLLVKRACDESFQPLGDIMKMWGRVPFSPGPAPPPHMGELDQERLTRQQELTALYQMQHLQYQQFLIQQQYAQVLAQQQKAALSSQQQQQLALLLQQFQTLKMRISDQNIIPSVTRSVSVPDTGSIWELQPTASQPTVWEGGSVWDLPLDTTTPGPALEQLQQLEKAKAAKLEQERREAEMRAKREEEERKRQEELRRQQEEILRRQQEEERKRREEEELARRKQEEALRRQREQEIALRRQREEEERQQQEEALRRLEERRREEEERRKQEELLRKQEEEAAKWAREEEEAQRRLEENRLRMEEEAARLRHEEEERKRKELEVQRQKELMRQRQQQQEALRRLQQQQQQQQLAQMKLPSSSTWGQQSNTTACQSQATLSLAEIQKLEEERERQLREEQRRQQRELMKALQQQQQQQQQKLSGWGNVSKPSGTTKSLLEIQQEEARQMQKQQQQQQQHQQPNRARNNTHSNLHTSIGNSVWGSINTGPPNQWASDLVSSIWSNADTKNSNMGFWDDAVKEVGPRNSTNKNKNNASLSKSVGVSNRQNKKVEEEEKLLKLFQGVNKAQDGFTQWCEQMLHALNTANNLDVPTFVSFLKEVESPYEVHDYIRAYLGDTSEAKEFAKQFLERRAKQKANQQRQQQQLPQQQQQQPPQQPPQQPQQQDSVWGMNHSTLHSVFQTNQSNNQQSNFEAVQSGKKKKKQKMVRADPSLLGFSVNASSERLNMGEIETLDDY
Experiment: affinity purification with mass spectrom

Molecule | binding
eIF4E2 (from UniProt O60573 1-245) | binds
B1 | binds
